Laboratory results: PubChem BioAssay AID652243 (Drosophila RNAi Screening Center, 2013)
Purpose: 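Fly genes required for human androgen receptor driven transcription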 (primary screen). Cells: Drosophila S2R+ cells. Knock-down reagent: long dsRNA against Drosophila genes. Time to read-out: 72 h (48 h, then 24 h hormone). Treatment: synthetic androgen R1881 at 10 nM for 24 h. Detection: 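Per-well raw luminescence of the androgen-driven firefly reporter and of the Renilla control, two replicates each, without normalisation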. Reading the numbers: firefly reporter light: higher = more light from androgen-responsive reporter; Renilla control light: higher = more constitutive control signal (cell number, transfection). Hit rule: 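Across duplicate plates, a knock-down whose log firefly/Renilla ratio shifted a set fold down or up from the GFP/LacZ control mean was a hit; the downward cut appears as both 1.5 and 3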. Calls: active = hit: reporter lowered or raised; inactive = no hit.
The deposit covers about 24,000 reagents; shown is an unselected part of those with a known target gene and a result. In the full data, 246 (1%) got an active call. 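Plates not normalised; calls are printed but the firefly/Renilla ratio behind them is not deposited; fold cut for lowering reported inconsistently.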 Raw values vary from plate to plate and are shown uncorrected. Reagents against one gene are numbered here. Names joined by + are all predicted targets of the reagent. No sequences are given here. Not given: the amount of reagent.

sordd2 + sordd1 #1 | firefly reporter light, replicate 1 = 59092; firefly reporter light, replicate 2 = 63863; Renilla control light, replicate 1 = 4.76e5; Renilla control light, replicate 2 = 5.54e5; call = inactive
sordd2 + sordd1 #2 | firefly reporter light, replicate 1 = 3.16e5; firefly reporter light, replicate 2 = 4.77e5; Renilla control light, replicate 1 = 4.55e5; Renilla control light, replicate 2 = 6.61e5; call = inactive
CG32713 | firefly reporter light, replicate 1 = 3.69e5; firefly reporter light, replicate 2 = 7.67e5; Renilla control light, replicate 1 = 1.09e6; Renilla control light, replicate 2 = 1.37e6; call = inactive
CG6454 #1 | firefly reporter light, replicate 1 = 57061; firefly reporter light, replicate 2 = 1.11e5; Renilla control light, replicate 1 = 6.59e5; Renilla control light, replicate 2 = 7.21e5; call = inactive
CG6454 #2 | firefly reporter light, replicate 1 = 1.06e6; firefly reporter light, replicate 2 = 9.57e5; Renilla control light, replicate 1 = 1.05e6; Renilla control light, replicate 2 = 1.08e6; call = inactive
Spn28Db | firefly reporter light, replicate 1 = 9.16e5; firefly reporter light, replicate 2 = 8.16e5; Renilla control light, replicate 1 = 1.42e6; Renilla control light, replicate 2 = 1.42e6; call = inactive
CG32440 | firefly reporter light, replicate 1 = 7.37e5; firefly reporter light, replicate 2 = 8.72e5; Renilla control light, replicate 1 = 7.24e5; Renilla control light, replicate 2 = 5.97e5; call = inactive
mRpS5 | firefly reporter light, replicate 1 = 6.00e5; firefly reporter light, replicate 2 = 6.13e5; Renilla control light, replicate 1 = 2.26e6; Renilla control light, replicate 2 = 2.00e6; call = inactive
CG42249 #1 | firefly reporter light, replicate 1 = 4.51e5; firefly reporter light, replicate 2 = 4.68e5; Renilla control light, replicate 1 = 3.40e6; Renilla control light, replicate 2 = 3.50e6; call = inactive
CG42249 #2 | firefly reporter light, replicate 1 = 3.34e5; firefly reporter light, replicate 2 = 4.15e5; Renilla control light, replicate 1 = 3.66e6; Renilla control light, replicate 2 = 3.30e6; call = inactive
CG42249 #3 | firefly reporter light, replicate 1 = 2.14e5; firefly reporter light, replicate 2 = 4.72e5; Renilla control light, replicate 1 = 7.68e5; Renilla control light, replicate 2 = 1.34e6; call = inactive
Appl #1 | firefly reporter light, replicate 1 = 44083; firefly reporter light, replicate 2 = 35417; Renilla control light, replicate 1 = 3.24e5; Renilla control light, replicate 2 = 3.63e5; call = inactive
Appl #2 | firefly reporter light, replicate 1 = 4.73e5; firefly reporter light, replicate 2 = 3.92e5; Renilla control light, replicate 1 = 3.93e5; Renilla control light, replicate 2 = 8.37e5; call = inactive
CG8112 | firefly reporter light, replicate 1 = 1.57e5; firefly reporter light, replicate 2 = 1.33e5; Renilla control light, replicate 1 = 3.10e6; Renilla control light, replicate 2 = 2.04e6; call = inactive
Dera #1 | firefly reporter light, replicate 1 = 7.62e5; firefly reporter light, replicate 2 = 7.53e5; Renilla control light, replicate 1 = 2.44e6; Renilla control light, replicate 2 = 2.76e6; call = inactive
Dera #2 | firefly reporter light, replicate 1 = 6.54e5; firefly reporter light, replicate 2 = 8.77e5; Renilla control light, replicate 1 = 2.05e6; Renilla control light, replicate 2 = 2.42e6; call = inactive
Dera #3 | firefly reporter light, replicate 1 = 3.25e5; firefly reporter light, replicate 2 = 3.40e5; Renilla control light, replicate 1 = 6.67e5; Renilla control light, replicate 2 = 6.82e5; call = inactive
Sys1 | firefly reporter light, replicate 1 = 1.46e5; firefly reporter light, replicate 2 = 99739; Renilla control light, replicate 1 = 1.94e6; Renilla control light, replicate 2 = 1.39e6; call = inactive
Gba1a | firefly reporter light, replicate 1 = 8.21e5; firefly reporter light, replicate 2 = 8.62e5; Renilla control light, replicate 1 = 2.73e6; Renilla control light, replicate 2 = 2.07e6; call = inactive
dbo | firefly reporter light, replicate 1 = 6.15e5; firefly reporter light, replicate 2 = 3.87e5; Renilla control light, replicate 1 = 2.78e6; Renilla control light, replicate 2 = 1.61e6; call = inactive
Pyroxd1 | firefly reporter light, replicate 1 = 29296; firefly reporter light, replicate 2 = 47183; Renilla control light, replicate 1 = 5.53e5; Renilla control light, replicate 2 = 1.04e6; call = active
CG16898 #1 | firefly reporter light, replicate 1 = 74115; firefly reporter light, replicate 2 = 1.00e5; Renilla control light, replicate 1 = 9.60e5; Renilla control light, replicate 2 = 1.56e6; call = inactive
CG16898 #2 | firefly reporter light, replicate 1 = 8.31e5; firefly reporter light, replicate 2 = 7.94e5; Renilla control light, replicate 1 = 9.59e5; Renilla control light, replicate 2 = 9.22e5; call = inactive
CG16898 #3 | firefly reporter light, replicate 1 = 9.33e5; firefly reporter light, replicate 2 = 8.49e5; Renilla control light, replicate 1 = 2.19e6; Renilla control light, replicate 2 = 1.84e6; call = inactive
AANATL2 #1 | firefly reporter light, replicate 1 = 1.00e5; firefly reporter light, replicate 2 = 90396; Renilla control light, replicate 1 = 1.18e6; Renilla control light, replicate 2 = 1.16e6; call = inactive
AANATL2 #2 | firefly reporter light, replicate 1 = 1.66e5; firefly reporter light, replicate 2 = 1.41e5; Renilla control light, replicate 1 = 2.53e5; Renilla control light, replicate 2 = 2.33e5; call = inactive
CG12516 | firefly reporter light, replicate 1 = 2.68e5; firefly reporter light, replicate 2 = 3.00e5; Renilla control light, replicate 1 = 3.26e6; Renilla control light, replicate 2 = 3.56e6; call = inactive

As entered above.
Under “Renilla control light, replicate 1”, Appl #2 is entered as 3.93e5
dbo, call → inactive
For “Renilla control light, replicate 1”, Dera #1 is entered as 2.44e6
For “call”, Pyroxd1 has active
